According to patent US8273700B2, “Methods and compositions for treatment of cystic fibrosis” (The Johns Hopkins University, priority 2005, dated 2012):
“Also recorded” adds a separate entry of the source. For at least one compound, name, drawing or mass did not settle the structure.

Amino acid sequences for entries named in this document (tags omitted). Chains listed by the source or under a name are the forms on record and can include a tag or linker.
UniProt P13569, with tags, fused parts or gaps DEL508-508: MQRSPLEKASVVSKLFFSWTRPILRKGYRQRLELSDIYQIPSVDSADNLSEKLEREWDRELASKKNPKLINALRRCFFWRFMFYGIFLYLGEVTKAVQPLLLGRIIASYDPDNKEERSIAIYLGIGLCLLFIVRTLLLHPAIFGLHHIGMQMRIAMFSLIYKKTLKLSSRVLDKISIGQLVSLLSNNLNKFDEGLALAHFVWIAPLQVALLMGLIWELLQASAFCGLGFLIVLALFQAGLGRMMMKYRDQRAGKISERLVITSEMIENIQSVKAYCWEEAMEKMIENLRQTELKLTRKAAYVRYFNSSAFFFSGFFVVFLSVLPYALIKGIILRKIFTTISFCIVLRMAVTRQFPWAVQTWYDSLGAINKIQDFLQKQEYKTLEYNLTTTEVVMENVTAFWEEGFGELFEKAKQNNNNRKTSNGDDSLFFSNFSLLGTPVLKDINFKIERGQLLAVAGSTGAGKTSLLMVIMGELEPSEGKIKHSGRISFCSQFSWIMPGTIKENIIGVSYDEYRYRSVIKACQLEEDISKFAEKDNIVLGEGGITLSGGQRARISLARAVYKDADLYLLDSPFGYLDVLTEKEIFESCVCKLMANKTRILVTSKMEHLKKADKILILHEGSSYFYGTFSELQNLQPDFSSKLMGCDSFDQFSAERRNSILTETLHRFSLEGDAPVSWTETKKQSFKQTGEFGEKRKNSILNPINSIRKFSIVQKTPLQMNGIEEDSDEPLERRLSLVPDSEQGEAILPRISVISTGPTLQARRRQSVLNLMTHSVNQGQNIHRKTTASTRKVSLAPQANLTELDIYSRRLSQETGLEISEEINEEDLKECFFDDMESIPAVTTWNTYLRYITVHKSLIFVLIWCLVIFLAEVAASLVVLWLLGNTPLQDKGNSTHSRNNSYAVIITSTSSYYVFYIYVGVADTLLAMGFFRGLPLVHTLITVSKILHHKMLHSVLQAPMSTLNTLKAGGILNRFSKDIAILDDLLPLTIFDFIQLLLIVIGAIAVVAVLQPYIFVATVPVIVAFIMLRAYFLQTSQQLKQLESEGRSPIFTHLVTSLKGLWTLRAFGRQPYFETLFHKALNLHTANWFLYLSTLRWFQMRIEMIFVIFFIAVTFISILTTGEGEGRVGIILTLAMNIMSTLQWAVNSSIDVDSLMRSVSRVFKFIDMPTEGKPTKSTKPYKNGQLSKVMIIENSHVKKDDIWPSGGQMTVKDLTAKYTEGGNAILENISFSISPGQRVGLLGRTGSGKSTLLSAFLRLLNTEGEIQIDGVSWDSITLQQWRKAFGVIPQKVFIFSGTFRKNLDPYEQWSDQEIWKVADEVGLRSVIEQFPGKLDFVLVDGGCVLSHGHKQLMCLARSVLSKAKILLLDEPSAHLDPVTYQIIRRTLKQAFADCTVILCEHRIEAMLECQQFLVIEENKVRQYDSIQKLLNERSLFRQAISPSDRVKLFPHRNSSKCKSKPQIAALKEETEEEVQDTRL

Target: T1, CFTR (Homo sapiens, UniProt P13569, DEL508-508)
T1 construct: expressed in transfected cells; host or cells: IB3-1 (ΔF508/W1282X) and CFTE (ΔF508 homozygous) cells
Assay: MQAE assay of CFTR-mediated chloride transport in IB3-1 cells
Type: cell-based
Conditions: 10 μM forskolin or genistein, 5 μM CFTR inhibitor 172 or 14-22 amide (FIG. 5A)
Description: CFTR-mediated chloride transport activity in IB3-1 cells transfected with ΔVCP, VCPQQ, Δgp78 and gp78ΔC constructs, and treated with bortezomib (1, 5 or 10 μM) was assayed by the halide-sensitive dye, MQAE. Fluorescence of MQAE is quenched by halides. Cells were grown on glass coverslips in DMEM containing 10% FBS. Cells were loaded with the dye by hypotonic shock at 37° C. for 40 min in Opti-MEM/water (1:1) containing 10 mM MQAE, washed and then mounted in a perfusion chamber for fluorescence measurements. Fluorescence was measured using a Zeiss inverted microscope coupled to a CCD camera Excitation and emission wavelengths were 350 nm and 460 nm, respectively. The stage and objective lenses were maintained at 37° C. The media was kept flowing through the perfusion chamber at 1 ml/min using a peristaltic pump. Both 10 μM forskolin and 10 μM genistein were used to induce Cl^− transport in IB3-1 cells. CFTR was inhibited with either 5 μM CFTR inhibitor 172 (12) or 14-22 amide (Calbiochem, San Diego, Calif.) to reduced cAMP mediated phosphorylation. Chloride efflux was calculated using following equations: F0/FCl=1+[Cl-]i*Ksv (1) F0=F20*(1+0.02*Ksv) (2) (dCl/dt)=F0/[Ksv*(FCl)2]*dFCl/dt (3)

In the case of C=C[C@@]1(C)CC(=O)[C@]2(O)[C@@]3(C)[C@@H](O)CCC(C)(C)[C@@H]3[C@H](O)[C@H](OC(C)=O)[C@@]2(C)O1 [forskolin], the “MQAE fluorescence (Cl- channel activity)” value was “minimal or no change; also recorded: no significant change”.
